Article doi:10.1101/808782
Results are given in words; binding and its absence hold for the method and conditions named. In cells and extracts the contact can be indirect. These calls come from enrichment with a bait or labelling near it, and not all partners need be listed.

Sequences of proteins named here, by UniProt entry; tags and fusion partners are left off. A change or cut given only in a name is not applied to a line headed by its entry.
UniProt P60953: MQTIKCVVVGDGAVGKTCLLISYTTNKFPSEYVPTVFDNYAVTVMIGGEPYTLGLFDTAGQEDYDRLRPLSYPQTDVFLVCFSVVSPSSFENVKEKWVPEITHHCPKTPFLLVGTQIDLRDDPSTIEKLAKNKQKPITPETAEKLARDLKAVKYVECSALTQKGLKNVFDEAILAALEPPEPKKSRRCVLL
UniProt P46940: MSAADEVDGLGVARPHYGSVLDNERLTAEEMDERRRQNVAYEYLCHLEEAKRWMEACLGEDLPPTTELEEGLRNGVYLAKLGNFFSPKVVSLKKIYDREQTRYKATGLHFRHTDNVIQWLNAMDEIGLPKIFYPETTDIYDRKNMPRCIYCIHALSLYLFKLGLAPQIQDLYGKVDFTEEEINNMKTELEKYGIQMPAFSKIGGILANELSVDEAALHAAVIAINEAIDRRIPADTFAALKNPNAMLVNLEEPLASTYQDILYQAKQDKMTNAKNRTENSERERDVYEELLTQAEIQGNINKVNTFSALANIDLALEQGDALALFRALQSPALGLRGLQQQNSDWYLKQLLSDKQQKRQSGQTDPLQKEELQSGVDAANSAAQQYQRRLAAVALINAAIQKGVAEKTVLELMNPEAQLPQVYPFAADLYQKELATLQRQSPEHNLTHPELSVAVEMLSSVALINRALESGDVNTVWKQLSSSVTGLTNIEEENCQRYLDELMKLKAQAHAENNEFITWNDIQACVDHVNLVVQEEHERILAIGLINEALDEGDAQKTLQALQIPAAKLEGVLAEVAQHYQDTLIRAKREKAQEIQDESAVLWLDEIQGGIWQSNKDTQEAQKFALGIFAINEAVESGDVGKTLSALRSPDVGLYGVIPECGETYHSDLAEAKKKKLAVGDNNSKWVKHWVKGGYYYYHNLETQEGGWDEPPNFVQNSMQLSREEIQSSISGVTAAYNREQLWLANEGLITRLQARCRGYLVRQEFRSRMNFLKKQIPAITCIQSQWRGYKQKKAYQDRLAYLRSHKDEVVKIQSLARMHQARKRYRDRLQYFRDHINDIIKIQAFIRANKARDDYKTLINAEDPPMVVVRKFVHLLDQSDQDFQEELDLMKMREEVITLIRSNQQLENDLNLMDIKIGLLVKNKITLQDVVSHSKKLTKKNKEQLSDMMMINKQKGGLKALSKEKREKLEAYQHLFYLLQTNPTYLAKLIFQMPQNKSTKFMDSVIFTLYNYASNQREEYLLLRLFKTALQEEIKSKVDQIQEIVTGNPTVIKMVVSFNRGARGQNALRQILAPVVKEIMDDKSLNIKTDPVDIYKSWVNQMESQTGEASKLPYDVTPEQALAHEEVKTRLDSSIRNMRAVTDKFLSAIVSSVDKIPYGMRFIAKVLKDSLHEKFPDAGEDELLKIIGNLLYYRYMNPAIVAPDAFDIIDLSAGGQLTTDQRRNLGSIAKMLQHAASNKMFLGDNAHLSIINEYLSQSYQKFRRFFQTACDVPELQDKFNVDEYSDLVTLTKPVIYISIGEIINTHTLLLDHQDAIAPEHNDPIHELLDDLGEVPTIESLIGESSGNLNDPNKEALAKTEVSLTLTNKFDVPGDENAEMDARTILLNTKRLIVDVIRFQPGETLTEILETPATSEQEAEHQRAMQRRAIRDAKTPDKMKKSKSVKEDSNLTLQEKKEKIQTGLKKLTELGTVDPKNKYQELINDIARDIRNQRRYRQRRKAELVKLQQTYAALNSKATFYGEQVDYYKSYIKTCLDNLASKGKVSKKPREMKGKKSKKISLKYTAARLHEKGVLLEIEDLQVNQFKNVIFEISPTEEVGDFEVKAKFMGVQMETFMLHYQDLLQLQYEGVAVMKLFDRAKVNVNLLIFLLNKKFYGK
UniProt Q86VI3: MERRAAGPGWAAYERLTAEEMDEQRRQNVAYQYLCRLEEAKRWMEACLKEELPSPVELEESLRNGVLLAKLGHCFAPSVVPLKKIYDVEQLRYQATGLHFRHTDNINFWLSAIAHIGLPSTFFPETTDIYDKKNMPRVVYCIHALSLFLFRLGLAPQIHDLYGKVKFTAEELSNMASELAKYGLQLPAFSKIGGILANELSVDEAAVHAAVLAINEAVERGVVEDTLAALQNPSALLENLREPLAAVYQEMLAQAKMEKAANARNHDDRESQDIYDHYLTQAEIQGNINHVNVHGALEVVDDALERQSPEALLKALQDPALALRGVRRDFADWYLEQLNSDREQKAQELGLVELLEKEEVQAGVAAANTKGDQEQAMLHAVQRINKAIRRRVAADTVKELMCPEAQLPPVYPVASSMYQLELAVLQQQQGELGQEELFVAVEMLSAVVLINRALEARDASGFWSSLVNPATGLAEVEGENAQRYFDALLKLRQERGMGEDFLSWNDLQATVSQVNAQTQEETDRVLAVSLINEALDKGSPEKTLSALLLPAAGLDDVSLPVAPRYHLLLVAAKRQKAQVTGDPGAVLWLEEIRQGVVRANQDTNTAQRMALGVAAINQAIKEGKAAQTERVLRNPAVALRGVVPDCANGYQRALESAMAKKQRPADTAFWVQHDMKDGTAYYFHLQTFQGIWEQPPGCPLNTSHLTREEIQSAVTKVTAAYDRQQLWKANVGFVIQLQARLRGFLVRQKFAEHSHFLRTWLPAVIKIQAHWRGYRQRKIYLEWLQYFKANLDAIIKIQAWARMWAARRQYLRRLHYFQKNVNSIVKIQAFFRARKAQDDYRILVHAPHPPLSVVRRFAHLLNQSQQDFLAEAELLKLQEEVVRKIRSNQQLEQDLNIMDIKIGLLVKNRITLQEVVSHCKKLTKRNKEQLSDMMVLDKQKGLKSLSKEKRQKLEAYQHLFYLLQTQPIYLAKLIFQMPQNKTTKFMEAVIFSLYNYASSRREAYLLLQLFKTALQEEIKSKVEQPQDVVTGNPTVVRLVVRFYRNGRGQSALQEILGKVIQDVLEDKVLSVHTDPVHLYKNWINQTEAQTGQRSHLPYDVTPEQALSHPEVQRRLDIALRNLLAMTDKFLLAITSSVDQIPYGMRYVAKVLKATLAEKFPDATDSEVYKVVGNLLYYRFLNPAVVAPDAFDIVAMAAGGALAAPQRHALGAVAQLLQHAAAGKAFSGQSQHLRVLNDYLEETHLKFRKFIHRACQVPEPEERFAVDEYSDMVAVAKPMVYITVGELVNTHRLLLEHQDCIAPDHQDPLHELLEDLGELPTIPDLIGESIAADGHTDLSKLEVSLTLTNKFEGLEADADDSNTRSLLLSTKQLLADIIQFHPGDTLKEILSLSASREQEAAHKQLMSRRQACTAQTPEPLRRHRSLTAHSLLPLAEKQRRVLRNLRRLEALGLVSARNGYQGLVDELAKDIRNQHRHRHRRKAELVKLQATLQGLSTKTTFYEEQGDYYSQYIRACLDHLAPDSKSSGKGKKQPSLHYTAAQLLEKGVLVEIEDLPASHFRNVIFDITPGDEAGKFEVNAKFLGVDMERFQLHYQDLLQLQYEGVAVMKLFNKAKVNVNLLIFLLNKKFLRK
UniProt Q96GI7: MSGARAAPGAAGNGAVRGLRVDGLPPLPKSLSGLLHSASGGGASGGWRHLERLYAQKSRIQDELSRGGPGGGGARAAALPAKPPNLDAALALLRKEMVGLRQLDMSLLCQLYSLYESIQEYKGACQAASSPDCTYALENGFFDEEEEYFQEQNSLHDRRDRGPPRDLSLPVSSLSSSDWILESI
UniProt P60660: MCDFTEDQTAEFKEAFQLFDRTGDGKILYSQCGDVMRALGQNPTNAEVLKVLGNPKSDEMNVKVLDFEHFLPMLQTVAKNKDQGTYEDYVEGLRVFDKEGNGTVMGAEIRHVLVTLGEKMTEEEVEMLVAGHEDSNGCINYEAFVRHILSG

Assays:
[1] = target: GFP-tagged Cdc42 R186C (human) (UniProt P60953); test: affinity purification with mass spectrometry
[2] = target: GFP-tagged wild-type Cdc42 (human) (UniProt P60953); test: affinity purification with mass spectrometry

Molecule: partner encoded by the IQGAP1 gene (from UniProt P46940 1-1657)
- binding [1]: binds

Molecule: IQGAP3 (from UniProt Q86VI3 1-1631)
- binding [1]: binds
- binding [2]: binds

Molecule: partner encoded by the FAM89A gene (from UniProt Q96GI7 1-184)
- binding [1]: binds
- binding [2]: binds

Molecule: partner encoded by the MYL6 gene (from UniProt P60660 1-151)
- binding [1]: binds
- binding [2]: binds

B1: partner encoded by the FIGNL2 gene (protein, UniProt A6NMB9 1-653)
chain: MHWTPEHAQPLNQWPEQHLDVSSTTPSPAHKLELPPGGRQRCHYAWAHDDISALTASNLLKRYAEKYSGVLDSPYERPALGGYSDASFLNGAKGDPEPWPGPEPPYPLASLHEGLPGTKSGGGGGSGALGGSPVLAGNLPEPLYAGNACGGPSAAPEYAAGYGGGYLAPGYCAQTGAALPPPPPAALLQPPPPPGYGPSAPLYNYPAGGYAAQPGYGALPPPPGPPPAPYLTPGLPAPTPLPAPAPPTAYGFPTAAPGAESGLSLKRKAADEGPEGRYRKYAYEPAKAPVADGASYPAADNGECRGNGFRAKPPGAAEEASGKYGGGVPLKVLGSPVYGPQLEPFEKFPERAPAPRGGFAVPSGETPKGVDPGALELVTSKMVDCGPPVQWADVAGQGALKAALEEELVWPLLRPPAYPGSLRPPRTVLLFGPRGAGKALLGRCLATQLGATLLRLRGATLAAPGAAEGARLLQAAFAAARCRPPSVLLISELEALLPARDDGAAAGGALQVPLLACLDGGCGAGADGVLVVGTTSRPAALDEATRRRFSLRFYVALPDSPARGQILQRALAQQGCALSERELAALVQGTQGFSGGELGQLCQQAAAGAGLPGLQRPLSYKDLEAALAKVGPRASAKELDSFVEWDKMYGSGH
- binding [1]: binds
- binding [2]: binds
